Test results published in PubChem BioAssay AID2685 (National Center for Advancing Translational Sciences (NCATS), 2010).
Some of the results follow. Shown are side measurements of this screen, not its main read-out; they come without a call. Most of these compounds were active or inconclusive in the main read-out, so they are no random draw. Potencies come from curve fits of mixed quality, noted in brackets.

Experiment: qHTS Assay for Lipid Storage Modulators in Drosophila S3 Cells;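 for cell number change: cells counted by Cell Tracker Red CMTPX staining in the red channel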
Settings: BODIPY lipid droplet fluorescence, 18-24 h; for cell number change: measured here: cell count max response, cells fed with added oleic acid
In short: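 Drosophila S3 cells got compounds at several concentrations plus oleic acid (400 uM solution). Laser-scanning cytometry with 488 nm excitation read lipid droplets at 500-530 nm and cells at 575-640 nm. Percent activity was relative to 20 uM Triacsin C.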

[1] = measured here: cell number channel AC50, cells fed with added oleic acid
[2] = measured here: lipid fluorescence (Fed channel) AC50, cells fed with added oleic acid

Compound	cell number change	AC50 [1]	AC50 [2]
COc1ccc(CCNC(=O)C/C(C)=N/NC(=O)C2CCCCC2)cc1OC	-25.5%		
CCOc1cc(NC(=S)NCC2CCCO2)c(OCC)cc1NC(=O)c1ccccc1 (stereo unspecified)		0.092 µM [rising, full curve, poor fit]	0.082 µM [rising, full curve, poor fit]
O=C(NCc1cccnc1)c1cc(Cl)ccc1[N+](=O)[O-]	14.1%	4.11 µM [falling, single point]	
CN1CCC(=NNC(=O)CN(c2ccc([N+](=O)[O-])cc2)S(=O)(=O)c2ccccc2)CC1	-35.5%	23.1 µM [falling, single point]	
CN(CCO)C(=O)C1CCN(c2ncc(C(F)(F)F)cc2Cl)CC1	-10.5%	0.00461 µM [falling, full curve, poor fit]	
CCn1c(Oc2ccccc2C)nc2c1c(=O)n(C)c(=O)n2C	-6.67%		
O=C(CCN1CCN(C/C=C/c2ccccc2)CC1)Nc1cccc(F)c1	-54.3%		0.411 µM [rising, single point]
COc1ccccc1C(=O)Nc1ccc(OCC(=O)N2CC(C)CC(C)C2)cc1 (stereo unspecified)	21.9%		29.1 µM [rising, single point]
Nc1[nH]c2cc([N+](=O)[O-])ccc2c1-c1ccccn1	29.3%		
Cn1c(=O)c2c(nc(NCCO)n2C)n(C)c1=O	1.95%		29.1 µM [falling, single point]
Cc1cc(NC(=O)c2ccc(NC(=O)CC(C)C)cc2)no1	17.4%		29.1 µM [rising, single point]
CCSc1ncc(Cl)c(C(=O)Nc2ccccc2F)n1	-16.9%		7.31 µM [falling, partial curve]
COC(=O)c1cc(S(=O)(=O)N2CCN(Cc3ccccc3)CC2)c[nH]1	3.13%		20.6 µM [falling, single point]
O=C1CC(N2CCSCC2)C(=O)N1c1ccc(F)cc1 (stereo unspecified)	17.4%		
COC(=O)c1c(NC(=O)CC2NCCNC2=O)sc2c1CCCC2 (stereo unspecified)	20.6%		7.31 µM [rising, partial curve, poor fit]
CC/C(C)=N/NS(=O)(=O)c1ccc(C)c([N+](=O)[O-])c1	10.3%		10.3 µM [rising, partial curve, poor fit]
CCCNC(=O)CN(C)C(=O)c1n[nH]c2ccccc12	5.42%	6.51 µM [rising, single point]	0.164 µM [falling, full curve, poor fit]
CCOC(=O)CC1C(=O)NCCN1S(=O)(=O)c1ccc(C)cc1 (stereo unspecified)	22.5%		0.231 µM [rising, full curve, poor fit]
COc1ccc(C2C(C(=O)OC3CCCCC3)=C(C)Nc3nnnn32)c(OC)c1OC (stereo unspecified)	-41.6%	1.03 µM [falling, partial curve]	0.651 µM [falling, full curve]

In the list so far, 6 have four or more nitrogen atoms:
Compound	cell number change	AC50 [1]	AC50 [2]
CN1CCC(=NNC(=O)CN(c2ccc([N+](=O)[O-])cc2)S(=O)(=O)c2ccccc2)CC1	-35.5%	23.1 µM [falling, single point]	
CCn1c(Oc2ccccc2C)nc2c1c(=O)n(C)c(=O)n2C	-6.67%		
Nc1[nH]c2cc([N+](=O)[O-])ccc2c1-c1ccccn1	29.3%		
Cn1c(=O)c2c(nc(NCCO)n2C)n(C)c1=O	1.95%		29.1 µM [falling, single point]
CCCNC(=O)CN(C)C(=O)c1n[nH]c2ccccc12	5.42%	6.51 µM [rising, single point]	0.164 µM [falling, full curve, poor fit]
COc1ccc(C2C(C(=O)OC3CCCCC3)=C(C)Nc3nnnn32)c(OC)c1OC (stereo unspecified)	-41.6%	1.03 µM [falling, partial curve]	0.651 µM [falling, full curve]

(continued)

Compound	cell number change	AC50 [1]	AC50 [2]
Cc1ccc2c(c1)N(CCC(=O)NCCN1CCOCC1)C(=O)CO2	-14.3%		
Cc1onc(-c2ccccc2)c1C(=O)OCC(=O)Nc1cc(S(=O)(=O)N2CCOCC2)ccc1Cl	48.1%		
O=C(Nc1cccc(F)c1)c1ccc(S(=O)(=O)N2CCCC2)cc1	-25.2%		32.6 µM [falling, single point]
COc1ccc(NC(=O)CC2C(=O)Nc3ccccc3N2CC(=O)N2CCCC2)cc1 (stereo unspecified)	4.95%	2.91 µM [falling, single point]	6.51 µM [falling, partial curve, poor fit]
COc1ccc(/C=N/NC(=O)c2ccc(Br)o2)cc1Cn1cc([N+](=O)[O-])cn1	43.6%	10.3 µM [rising, partial curve, poor fit]	5.17 µM [rising, partial curve]
COc1ccc(/C=N/NC(=O)c2ccc(CN3C(=O)c4cccc5cccc3c45)cc2)cc1O			32.6 µM [falling, single point]
Cc1ccc2oc(=O)n(CCOc3ccccc3)c2c1	18.9%		0.326 µM [rising, full curve, poor fit]
CNC(=S)N(CCN(C)C)Cc1cc2cc3c(cc2[nH]c1=O)OCO3	2.7%		
COc1ccc(S(=O)(=O)N2CCN(c3ncccn3)CC2)cc1[N+](=O)[O-]	3.28%	5.8 µM [falling, partial curve]	
CCOC(=O)c1c(NC(=O)c2cccs2)sc(C(=O)N(C)C)c1C		1.46 µM [rising, partial curve]	20.6 µM [falling, single point]
Cc1ccnc(NC(=O)C2CCN(S(=O)(=O)c3ccc(Cl)c(C(F)(F)F)c3)CC2)c1			1.3 µM [falling, partial curve]
O=C(Cn1ccc2ccccc2c1=O)N1CCN(Cc2ccc3c(c2)OCO3)CC1	-38.9%	9.2 µM [falling, partial curve, poor fit]	4.11 µM [falling, partial curve, poor fit]
CCC1(C)Cc2nc3[nH]c(=S)n(-c4ccccc4)c(=O)c3cc2CO1 (stereo unspecified)	-48.9%	0.0731 µM [falling, full curve]	0.82 µM [falling, full curve, poor fit]
CN1C(=O)N(CC(=O)N2CCN(c3ncccn3)CC2)C(=O)C12CCCCC2	-77.1%	20.6 µM [falling, single point]	
O=C(CNCc1ccc(Cl)cc1)NCc1ccco1	17.5%		7.31 µM [falling, single point]
O=C1CC(c2ccco2)Cc2nc(Nc3ccc(F)cc3)ncc21 (stereo unspecified)	-34.6%	11.6 µM [falling, partial curve, poor fit]	
Cc1c(NC(=O)CN2C(=O)NC(C)(c3ccc(OC(F)F)cc3)C2=O)c(=O)n(-c2ccccc2)n1C (stereo unspecified)	-33.7%	4.61 µM [falling, full curve]	
CCC(=S)/C=C1\Sc2ccccc2N1CCCS(=O)(=O)O	-13.3%		
CCN1CCN(c2ncnc3scc(-c4ccc(C)c(C)c4)c23)CC1	-2.86%		
